# This is one part of the list.
# The chains behind the UniProt entries cited, without tags or fusion partners. Where a name states a change or a piece, a line headed by the entry shows the natural chain unless it says otherwise.
# UniProt Q70UQ0: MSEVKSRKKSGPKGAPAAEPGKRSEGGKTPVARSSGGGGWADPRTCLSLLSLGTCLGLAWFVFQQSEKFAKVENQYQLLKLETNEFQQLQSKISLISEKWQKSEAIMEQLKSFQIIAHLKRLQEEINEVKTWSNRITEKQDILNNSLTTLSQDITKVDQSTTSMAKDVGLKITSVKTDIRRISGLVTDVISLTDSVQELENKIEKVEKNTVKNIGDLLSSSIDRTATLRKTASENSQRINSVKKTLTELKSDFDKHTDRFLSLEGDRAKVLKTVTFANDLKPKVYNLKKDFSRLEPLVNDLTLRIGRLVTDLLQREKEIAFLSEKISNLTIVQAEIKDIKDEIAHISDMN
# UniProt Q9HCE5: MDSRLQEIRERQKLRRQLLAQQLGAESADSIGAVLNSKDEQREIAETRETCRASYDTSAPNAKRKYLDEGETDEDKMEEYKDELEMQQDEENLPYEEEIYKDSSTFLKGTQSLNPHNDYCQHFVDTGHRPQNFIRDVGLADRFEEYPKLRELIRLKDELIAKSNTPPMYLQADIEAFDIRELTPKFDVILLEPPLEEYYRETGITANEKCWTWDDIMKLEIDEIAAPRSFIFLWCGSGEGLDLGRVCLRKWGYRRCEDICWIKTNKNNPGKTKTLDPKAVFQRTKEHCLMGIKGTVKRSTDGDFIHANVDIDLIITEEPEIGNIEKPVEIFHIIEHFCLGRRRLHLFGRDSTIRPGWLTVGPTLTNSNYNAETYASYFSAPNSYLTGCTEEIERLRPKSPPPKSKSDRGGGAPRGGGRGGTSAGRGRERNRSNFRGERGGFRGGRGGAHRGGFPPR
# UniProt Q8N5M9: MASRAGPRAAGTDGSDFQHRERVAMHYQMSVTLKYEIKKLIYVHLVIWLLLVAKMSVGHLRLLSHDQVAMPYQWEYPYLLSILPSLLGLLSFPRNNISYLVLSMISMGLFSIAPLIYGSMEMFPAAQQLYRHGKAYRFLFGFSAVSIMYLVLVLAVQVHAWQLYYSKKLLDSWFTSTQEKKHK
# UniProt Q13572: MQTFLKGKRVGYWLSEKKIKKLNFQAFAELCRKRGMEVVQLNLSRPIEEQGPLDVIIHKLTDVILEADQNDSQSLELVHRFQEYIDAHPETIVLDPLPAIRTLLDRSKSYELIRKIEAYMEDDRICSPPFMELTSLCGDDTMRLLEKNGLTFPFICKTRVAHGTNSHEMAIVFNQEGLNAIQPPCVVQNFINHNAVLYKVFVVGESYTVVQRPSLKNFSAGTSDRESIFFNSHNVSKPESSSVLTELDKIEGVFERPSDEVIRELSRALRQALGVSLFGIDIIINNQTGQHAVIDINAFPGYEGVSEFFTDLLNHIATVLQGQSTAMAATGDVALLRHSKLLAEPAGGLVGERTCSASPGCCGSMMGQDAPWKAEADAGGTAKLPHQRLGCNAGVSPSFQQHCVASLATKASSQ
# UniProt Q9UL03, whole entry: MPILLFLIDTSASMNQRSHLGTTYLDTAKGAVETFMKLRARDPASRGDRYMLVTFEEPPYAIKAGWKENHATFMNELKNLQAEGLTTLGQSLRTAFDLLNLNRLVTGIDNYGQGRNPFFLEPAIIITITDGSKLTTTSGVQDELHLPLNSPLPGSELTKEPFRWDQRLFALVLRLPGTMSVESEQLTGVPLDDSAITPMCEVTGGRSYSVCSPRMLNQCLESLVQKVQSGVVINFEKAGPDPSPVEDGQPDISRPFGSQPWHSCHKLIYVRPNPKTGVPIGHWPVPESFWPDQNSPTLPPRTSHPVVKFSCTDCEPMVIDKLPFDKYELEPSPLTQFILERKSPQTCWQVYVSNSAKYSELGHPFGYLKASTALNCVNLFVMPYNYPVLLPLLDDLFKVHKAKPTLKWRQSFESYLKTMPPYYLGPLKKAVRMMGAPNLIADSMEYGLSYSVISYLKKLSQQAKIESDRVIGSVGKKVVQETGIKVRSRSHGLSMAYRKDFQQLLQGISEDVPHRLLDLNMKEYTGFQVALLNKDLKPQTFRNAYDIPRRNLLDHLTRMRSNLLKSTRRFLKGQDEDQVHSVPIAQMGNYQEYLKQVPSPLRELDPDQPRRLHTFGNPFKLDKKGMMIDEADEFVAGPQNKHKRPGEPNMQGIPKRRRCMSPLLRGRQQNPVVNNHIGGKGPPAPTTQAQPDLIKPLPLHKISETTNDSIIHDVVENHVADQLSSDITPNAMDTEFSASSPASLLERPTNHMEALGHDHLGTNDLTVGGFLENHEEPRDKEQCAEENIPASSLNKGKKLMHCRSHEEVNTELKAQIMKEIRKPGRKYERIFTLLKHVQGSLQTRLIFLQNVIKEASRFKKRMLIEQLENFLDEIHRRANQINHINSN
# UniProt O60921: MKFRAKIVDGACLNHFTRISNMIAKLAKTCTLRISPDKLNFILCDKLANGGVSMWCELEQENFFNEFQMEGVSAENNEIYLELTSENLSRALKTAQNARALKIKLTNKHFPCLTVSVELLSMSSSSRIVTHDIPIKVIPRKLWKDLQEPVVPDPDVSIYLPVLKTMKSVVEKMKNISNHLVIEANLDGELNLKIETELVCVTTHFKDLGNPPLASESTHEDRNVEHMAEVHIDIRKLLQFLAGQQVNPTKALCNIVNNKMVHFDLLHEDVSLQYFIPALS
# UniProt Q9NZI8, whole entry: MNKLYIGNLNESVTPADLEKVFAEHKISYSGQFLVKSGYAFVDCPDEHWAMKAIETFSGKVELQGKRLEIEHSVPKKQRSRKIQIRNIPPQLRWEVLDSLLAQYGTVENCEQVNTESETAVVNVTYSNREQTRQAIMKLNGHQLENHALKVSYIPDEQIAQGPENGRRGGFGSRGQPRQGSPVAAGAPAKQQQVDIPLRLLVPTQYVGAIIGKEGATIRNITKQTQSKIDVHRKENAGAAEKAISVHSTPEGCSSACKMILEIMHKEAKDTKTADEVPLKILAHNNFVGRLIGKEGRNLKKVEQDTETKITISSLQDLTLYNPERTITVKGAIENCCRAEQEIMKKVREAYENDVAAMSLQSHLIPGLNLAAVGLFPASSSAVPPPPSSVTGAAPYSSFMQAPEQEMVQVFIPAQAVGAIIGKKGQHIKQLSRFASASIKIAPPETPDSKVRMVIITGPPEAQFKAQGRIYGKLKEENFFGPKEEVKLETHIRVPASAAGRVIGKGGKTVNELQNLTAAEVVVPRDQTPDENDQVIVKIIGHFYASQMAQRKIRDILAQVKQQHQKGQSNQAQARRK
# UniProt Q13418: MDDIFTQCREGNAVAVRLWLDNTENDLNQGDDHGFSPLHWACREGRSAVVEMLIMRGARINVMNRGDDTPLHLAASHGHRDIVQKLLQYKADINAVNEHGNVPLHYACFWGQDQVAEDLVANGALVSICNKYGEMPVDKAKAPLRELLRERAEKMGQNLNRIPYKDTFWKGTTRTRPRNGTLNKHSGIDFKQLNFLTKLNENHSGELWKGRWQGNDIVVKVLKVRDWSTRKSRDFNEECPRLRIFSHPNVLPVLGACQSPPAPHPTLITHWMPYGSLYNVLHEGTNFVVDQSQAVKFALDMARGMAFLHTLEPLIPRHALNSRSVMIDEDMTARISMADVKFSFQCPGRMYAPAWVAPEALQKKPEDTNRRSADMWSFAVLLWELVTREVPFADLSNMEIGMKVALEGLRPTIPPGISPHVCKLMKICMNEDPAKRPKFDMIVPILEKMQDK
# UniProt Q86X10: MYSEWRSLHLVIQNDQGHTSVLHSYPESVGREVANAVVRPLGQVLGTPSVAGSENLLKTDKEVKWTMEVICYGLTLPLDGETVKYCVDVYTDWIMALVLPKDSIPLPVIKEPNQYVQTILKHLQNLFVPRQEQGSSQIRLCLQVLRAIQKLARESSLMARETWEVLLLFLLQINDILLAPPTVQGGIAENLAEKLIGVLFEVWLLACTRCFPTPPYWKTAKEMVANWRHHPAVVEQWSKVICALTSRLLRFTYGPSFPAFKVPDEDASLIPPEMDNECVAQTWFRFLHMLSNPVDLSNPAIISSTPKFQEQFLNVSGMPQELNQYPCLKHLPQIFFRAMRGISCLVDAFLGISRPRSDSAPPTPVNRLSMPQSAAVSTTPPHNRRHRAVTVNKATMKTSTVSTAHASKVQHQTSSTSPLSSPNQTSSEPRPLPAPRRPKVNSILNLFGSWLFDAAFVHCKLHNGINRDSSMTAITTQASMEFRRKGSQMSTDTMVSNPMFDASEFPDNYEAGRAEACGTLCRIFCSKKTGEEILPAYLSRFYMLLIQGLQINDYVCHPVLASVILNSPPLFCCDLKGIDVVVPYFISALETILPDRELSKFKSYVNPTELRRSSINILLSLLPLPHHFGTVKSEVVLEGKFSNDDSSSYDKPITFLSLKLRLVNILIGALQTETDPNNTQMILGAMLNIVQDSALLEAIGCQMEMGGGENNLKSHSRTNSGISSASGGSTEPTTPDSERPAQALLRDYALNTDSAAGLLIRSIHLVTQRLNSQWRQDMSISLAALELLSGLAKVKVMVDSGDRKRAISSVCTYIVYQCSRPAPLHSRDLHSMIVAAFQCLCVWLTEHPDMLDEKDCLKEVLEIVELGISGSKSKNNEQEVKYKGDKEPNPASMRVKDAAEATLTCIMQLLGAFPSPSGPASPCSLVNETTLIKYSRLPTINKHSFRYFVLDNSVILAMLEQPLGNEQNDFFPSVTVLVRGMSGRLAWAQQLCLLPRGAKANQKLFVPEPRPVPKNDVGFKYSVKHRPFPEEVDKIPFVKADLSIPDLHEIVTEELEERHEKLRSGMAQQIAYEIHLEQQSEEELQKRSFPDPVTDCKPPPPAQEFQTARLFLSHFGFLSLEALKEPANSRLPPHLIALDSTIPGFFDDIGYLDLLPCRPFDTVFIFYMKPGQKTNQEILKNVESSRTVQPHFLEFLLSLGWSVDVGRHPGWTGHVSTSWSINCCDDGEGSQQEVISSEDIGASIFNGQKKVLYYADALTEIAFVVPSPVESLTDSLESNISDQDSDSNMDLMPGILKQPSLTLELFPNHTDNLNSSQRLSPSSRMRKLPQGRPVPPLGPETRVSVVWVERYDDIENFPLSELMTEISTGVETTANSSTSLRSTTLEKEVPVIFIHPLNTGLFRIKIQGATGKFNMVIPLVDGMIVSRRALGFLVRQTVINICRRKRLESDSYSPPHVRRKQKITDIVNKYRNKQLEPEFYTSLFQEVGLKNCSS
# UniProt Q96SI1: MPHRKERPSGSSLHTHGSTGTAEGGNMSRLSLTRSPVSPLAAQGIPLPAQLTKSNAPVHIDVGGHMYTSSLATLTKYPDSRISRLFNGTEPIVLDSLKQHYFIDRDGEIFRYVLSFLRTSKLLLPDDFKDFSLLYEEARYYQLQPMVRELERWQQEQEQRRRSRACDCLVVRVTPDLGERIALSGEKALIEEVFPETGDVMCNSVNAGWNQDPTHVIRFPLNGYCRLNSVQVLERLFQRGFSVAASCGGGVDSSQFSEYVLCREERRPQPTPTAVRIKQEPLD
# UniProt Q9H0H0, whole entry: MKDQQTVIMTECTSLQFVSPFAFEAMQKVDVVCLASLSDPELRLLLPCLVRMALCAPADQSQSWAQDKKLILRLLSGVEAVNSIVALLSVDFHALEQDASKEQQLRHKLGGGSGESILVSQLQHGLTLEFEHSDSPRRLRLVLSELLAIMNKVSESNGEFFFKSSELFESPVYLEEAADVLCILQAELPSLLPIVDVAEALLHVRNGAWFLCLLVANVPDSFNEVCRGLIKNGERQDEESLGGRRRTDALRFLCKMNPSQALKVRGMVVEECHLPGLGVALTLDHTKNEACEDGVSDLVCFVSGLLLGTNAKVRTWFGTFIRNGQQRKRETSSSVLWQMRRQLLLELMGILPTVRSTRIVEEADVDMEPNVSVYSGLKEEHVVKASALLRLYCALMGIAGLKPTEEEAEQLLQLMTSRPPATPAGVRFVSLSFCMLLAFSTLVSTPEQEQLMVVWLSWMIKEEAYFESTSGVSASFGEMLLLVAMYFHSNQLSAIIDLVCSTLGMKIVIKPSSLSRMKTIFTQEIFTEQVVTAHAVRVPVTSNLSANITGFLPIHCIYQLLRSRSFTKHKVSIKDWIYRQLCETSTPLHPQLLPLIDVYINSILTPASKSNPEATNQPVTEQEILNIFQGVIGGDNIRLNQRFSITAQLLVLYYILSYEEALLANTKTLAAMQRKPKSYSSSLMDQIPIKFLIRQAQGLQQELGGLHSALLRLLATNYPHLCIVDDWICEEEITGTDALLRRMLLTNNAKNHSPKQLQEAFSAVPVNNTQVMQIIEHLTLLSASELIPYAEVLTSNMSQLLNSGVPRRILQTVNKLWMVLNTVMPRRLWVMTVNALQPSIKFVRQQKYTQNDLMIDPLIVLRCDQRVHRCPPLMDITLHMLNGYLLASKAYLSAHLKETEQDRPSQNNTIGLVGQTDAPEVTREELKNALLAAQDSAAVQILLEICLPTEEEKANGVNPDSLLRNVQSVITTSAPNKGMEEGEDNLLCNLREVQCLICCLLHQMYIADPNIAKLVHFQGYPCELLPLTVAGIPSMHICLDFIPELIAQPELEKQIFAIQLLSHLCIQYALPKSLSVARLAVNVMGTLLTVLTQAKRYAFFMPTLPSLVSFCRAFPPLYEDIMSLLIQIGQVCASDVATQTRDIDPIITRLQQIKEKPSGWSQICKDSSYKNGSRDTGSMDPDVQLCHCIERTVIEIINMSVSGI
# Compound: COc1ccc(Cn2ccc3cc(C)c(C(=O)NO)cc32)cc1
# Experiment: dose-dependent thermal stabilisation call (2D-TPP, DLPTP, 10% FDR) (binary (1 = stabilised)); higher = stabilised by the compound
# Settings: system: HL-60 intact cells; concentration range 0.04-10 µM
# Protocol: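 2D thermal proteome profiling in intact HL-60 cells treated with BRD-3811 (0, 0.04, 0.29, 2, 10 uM) for 90 min at 37 C, then heated 3 min at one of 12 temperatures (42-63.9 C). Soluble protein was quantified by TMT10 MS. The value is the DLPTP call of the paper: dose-dependent thermal stabilisation over all temperatures at 10% FDR (F-test of a dose-response against a flat model); one experiment, one call per tested protein.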
row,Target,dose-dependent thermal stabilisation call
1,IKIP (UniProt Q70UQ0),inactive: 0
2,IMPDH1 (UniProt P20839),inactive: 0
3,KIAA0922 (UniProt A2VDJ0),inactive: 0
4,IL18R1 (UniProt Q13478),inactive: 0
5,ISY1 (UniProt Q9ULR0),inactive: 0
6,KIAA1627 (UniProt Q9HCE5),inactive: 0
7,KIAA0776 (UniProt O94874),inactive: 0
8,KIF3B (UniProt O15066),inactive: 0
9,ITGA6 (UniProt P23229),inactive: 0
10,KATNA1 (UniProt O75449),inactive: 0
11,KIF4A (UniProt O95239),inactive: 0
12,KIF21B (UniProt O75037),inactive: 0
13,KIAA0406 (UniProt O43156),inactive: 0
14,JAGN1 (UniProt Q8N5M9),inactive: 0
15,ITPK1 (UniProt Q13572),inactive: 0
16,KIAA1804 (UniProt Q5TCX8),inactive: 0
17,KIAA1919 (UniProt Q5TF39),inactive: 0
18,INTS6 (UniProt Q9UL03),inactive: 0

row,Target,dose-dependent thermal stabilisation call
1,ITFG3 (UniProt Q9H0X4),inactive: 0
2,HUS1 (UniProt O60921),inactive: 0
3,IGF2BP1 (UniProt Q9NZI8),inactive: 0
4,IFNAR1 (UniProt P17181),inactive: 0
5,KIAA1602 (UniProt Q9HCH0),inactive: 0
6,KIAA0323 (UniProt O15037),inactive: 0
7,ILK (UniProt Q13418),inactive: 0
8,KIAA1219 (UniProt Q86X10),inactive: 0
9,IKZF1 (UniProt Q13422),inactive: 0
10,ITM2C (UniProt Q9NQX7),inactive: 0
11,IQGAP2 (UniProt Q13576),inactive: 0
12,INTS10 (UniProt Q9NVR2),inactive: 0
13,INTS5 (UniProt Q6P9B9),inactive: 0
14,INPP5D (UniProt Q92835),inactive: 0
15,ILF3 (UniProt Q12906),inactive: 0
16,KCTD15 (UniProt Q96SI1),inactive: 0
17,INTS2 (UniProt Q9H0H0),inactive: 0
18,KPNA6 (UniProt O60684),inactive: 0

# Some of the entries so far, tab-delimited.
row	Target	dose-dependent thermal stabilisation call
1	ITFG3 (UniProt Q9H0X4)	inactive: 0
3	IGF2BP1 (UniProt Q9NZI8)	inactive: 0
4	IFNAR1 (UniProt P17181)	inactive: 0
5	KIAA1602 (UniProt Q9HCH0)	inactive: 0
10	ITM2C (UniProt Q9NQX7)	inactive: 0
11	IQGAP2 (UniProt Q13576)	inactive: 0
12	INTS10 (UniProt Q9NVR2)	inactive: 0
13	INTS5 (UniProt Q6P9B9)	inactive: 0
16	KCTD15 (UniProt Q96SI1)	inactive: 0
17	INTS2 (UniProt Q9H0H0)	inactive: 0

# Reference: the supplement of paper PMC7666118
